Experimental data: patent publication US5734012A (Ohmeda Pharmaceutical Products Division Inc., priority 1996, dated 1998)

Experiments:
[1] = general procedure: Boc solid-phase peptide synthesis; MBHA resin (1% cross-linked divinyl benzene-styrene, 200-400 mesh, 0.27 meq/g); BOP/triethylamine (on-resin cyclization); conditions: whole synthesis, bis-trifluoroacetate salt; for crude yield / isolated yield: scale of the general procedure 1 g of MBHA resin
[2] = general procedure: Boc solid-phase peptide synthesis; MBHA; BOP/triethylamine (on-resin cyclization); conditions: whole synthesis, bis-trifluoroacetate salt

Substance	crude mass [1]	isolated mass [1]	crude yield [1]	isolated yield [1]	crude mass [2]
Cyclo^10,14 [N-MethylPhe^1,Glu^10, Ala^11,Leu^13, Lys^14 ]motilin-(1-14)-peptide Amide (Porcine) Bis-Trifluoroacetate Salt	200 mg	40 mg	45%	10%	
Cyclo^10,14 [N,N,N-TrimethylPhe^1,Glu^10, Ala^11,Leu^13, Lys^14 ]motilin-(1-14)-peptide Amide(Porcine) Bis-Trifluoroacetate Salt	400 mg	56 mgs	87%	12%	
Cyclo^10,14 [Asp^10,Leu^13,Lys^14 ]motilin-(1-14)-peptide Amide (Porcine) Bis-Trifluoroacetate Salt		86 mg	87%	16%	400 mg
